According to the supplement of paper PMC12462457:
Where a name gives a salt, the structure may show the parent alone. ± gives the standard deviation of the averaged measurements. The list shows a part of the results. Repeats in this data set agree poorly, so a single value says little.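 Cells were counted by imaging DAPI-stained nuclei, and cells lacking phalloidin-stained cytoplasm were excluded as dead. Each well's count was divided by the median count of the vehicle wells on the same plate, and values were averaged over two replicate plates.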

Tested on: OVCAR8
Assay: cell count relative to DMSO vehicle (fold change); higher = more surviving senescent cells (less killing)
Conditions: senescence inducer: cisplatin 10 µM 48 h, then 6 d recovery (CP senescent), exposure time 24 h

Structure (SMILES)	cell count (compound dose 1 µM)	cell count (compound dose 5 µM)
COc1cc2c(N3CCN(C(=O)Nc4ccc(OC(C)C)cc4)CC3)ncnc2cc1OCCCN1CCCCC1 [Tandutinib]	1.16 ± 0.12	1.09 ± 0.19
CC(C(=O)O)c1ccc(-c2ccccc2)c(F)c1 (configuration not stated)	1.06 ± 0.2	1.15 ± 0.25
CN[C@@H](C)C(=O)N[C@H]1CN(C(=O)CC(C)C)CC[C@H]2CC[C@@H](C(=O)NC(c3ccccc3)c3ccccc3)N2C1=O [Xevinapant]	0.738 ± 0.13	0.437 ± 0.045
Cc1cc(=O)[nH]c(=S)[nH]1	0.933 ± 0.22	0.608 ± 0.16
CC[C@]1(O)C[C@H]2CN(CCc3c([nH]c4ccccc34)[C@@](C(=O)OC)(c3cc4c(cc3OC)N(C=O)[C@H]3[C@@](O)(C(=O)OC)[C@H](OC(C)=O)[C@]5(CC)C=CCN6CC[C@]43[C@@H]65)C2)C1 [Vincristine (sulfate)]	0.793 ± 0.069	0.734 ± 0.069
CC(=O)Nc1ccc(C(=O)Nc2ccc(F)cc2N)cc1	0.901 ± 0.053	0.957 ± 0.023
Oc1ccc(/C=C/c2cc(O)cc(O)c2)cc1	0.773 ± 0.088	0.745 ± 0.18
CCN(CC)CCNC(=O)c1c(C)[nH]c(/C=C2\C(=O)Nc3ccc(F)cc32)c1C [Sunitinib]	1.23 ± 0.27	0.803 ± 0.29
CCN(CC)CCNC(=O)c1c(C)[nH]c(/C=C2\C(=O)Nc3ccc(F)cc32)c1C [Sunitinib Malate]	1.22 ± 0.044	0.498 ± 0.085
COc1cc([C@@H]2c3cc4c(cc3[C@@H](O[C@@H]3O[C@@H]5CO[C@@H](C)O[C@H]5[C@H](O)[C@H]3O)[C@H]3COC(=O)[C@H]23)OCO4)cc(OC)c1O [Etoposide]	1.22 ± 0.19	0.9125 ± 0.0021
CN(C)C(=S)NN=C(c1ccccn1)c1ccccn1	0.773 ± 0.12	0.929 ± 0.046
Cc1cc(O)c(-c2ccc([C@@H](C)CN)cc2)c2c1[nH]c(=O)c1sccc12	0.734 ± 0.11	0.902 ± 0.013
OC[C@H]1O[C@@H](Oc2cc(O)cc(/C=C/c3ccc(O)cc3)c2)[C@H](O)[C@@H](O)[C@@H]1O [Polydatin]	1.19 ± 0.09	0.945 ± 0.17
CCC(C)(C)C(=O)N(O)Cc1ccccc1	1.24 ± 0.19	0.964 ± 0.025
COc1ccc(F)c(F)c1C(=O)c1cnc(NC2CCN(S(C)(=O)=O)CC2)nc1N	1.22 ± 0.097	0.626 ± 0.11
Cc1ccc(C(C)C)cc1O [Carvacrol]	1.02 ± 0.068	0.994 ± 0.025
CCN1CCN(Cc2ccc(NC(=O)c3ccc(C)c(Oc4ncnc5cc(OC)c(OC)cc45)c3)cc2C(F)(F)F)CC1	0.952 ± 0.061	0.638 ± 0.02
O=C1OCCN1/N=C/c1ccc([N+](=O)[O-])o1 [Furazolidone]	1.19 ± 0.15	0.871 ± 0.018
Cc1c(O)c(=O)ccn1C	1.16 ± 0.15	0.822 ± 0.064
O=S(=O)(O)c1cc(O)ccc1O [Calcium dobesilate]	1.04 ± 0.12	0.929 ± 0.092
O=C(/C=C/c1ccc(O)c(O)c1)OCCc1ccccc1	1.17 ± 0.29	1.02 ± 0.13

Quoted from the listing.
In cell count (compound dose 5 µM), CN[C@@H](C)C(=O)N[C@H]1CN(C(=O)CC(C)C)CC[C@H]2CC[C@@H](C(=O)NC(c3ccccc3)c3ccccc3)N2C1=O [Xevinapant] shows 0.437 ± 0.045
In cell count (compound dose 1 µM), OC[C@H]1O[C@@H](Oc2cc(O)cc(/C=C/c3ccc(O)cc3)c2)[C@H](O)[C@@H](O)[C@@H]1O [Polydatin] shows 1.19 ± 0.09

Further entries.

Structure (SMILES)	cell count (compound dose 1 µM)	cell count (compound dose 5 µM)
CC[C@H](C)C(=O)O[C@H]1CCC=C2C=C[C@H](C)[C@H](CC[C@@H]3C[C@@H](O)CC(=O)O3)[C@H]21 [Mevastatin]	1.428 ± 0.0057	1.1 ± 0.37
CC(=O)[C@]1(O)Cc2c(O)c3c(c(O)c2[C@@H](O[C@H]2C[C@H](N)[C@H](O)[C@H](C)O2)C1)C(=O)c1ccccc1C3=O [Idarubicin (hydrochloride)]	0.416 ± 0.11	0.226 ± 0.14
CN(C)c1ncnc2c1ncn2[C@@H]1O[C@H](CO)[C@@H](N)[C@H]1O [Puromycin aminonucleoside]	0.849 ± 0.15	0.837 ± 0.09
CCCOc1ccn2c(C(C)=O)cc(-c3ccccc3S(C)(=O)=O)c2c1	1.12 ± 0.22	1.11 ± 0.23
Cc1nc(=O)c2cc(CN(C)c3ccc(C(=O)N[C@@H](CCC(=O)O)C(=O)O)s3)ccc2[nH]1 [Raltitrexed]	0.898 ± 0.096	0.886 ± 0.21
O=c1c(O[C@@H]2O[C@H](CO)[C@@H](O)[C@H](O)[C@H]2O)c(-c2ccc(O)cc2)oc2cc(O)cc(O)c12 [Astragalin]	0.844 ± 0.079	1.03 ± 0.016
Cn1cc(C2=C(c3coc4ccc(F)cc34)C(=O)NC2=O)c2cc3c(cc21)OCO3	1.14 ± 0.16	1.03 ± 0.096
COCC[n+]1c2c(n(Cc3cnccn3)c1C)C(=O)c1ccccc1C2=O [Sepantronium (bromide)]	0.202 ± 0.016	0.102 ± 0.03
CO[C@]1(CC[C@@H](C)CO[C@@H]2O[C@H](CO)[C@@H](O)[C@H](O)[C@H]2O)O[C@H]2C[C@H]3[C@@H]4CC=C5C[C@@H](O[C@@H]6O[C@H](CO)[C@@H](O[C@@H]7O[C@@H](C)[C@H](O)[C@@H](O)[C@H]7O)[C@H](O)[C@H]6O[C@@H]6O[C@@H](C)[C@H](O)[C@@H](O)[C@H]6O)CC[C@]5(C)[C@H]4CC[C@]3(C)[C@H]2[C@@H]1C [Methyl protodioscin]	0.632 ± 0.22	0.139 ± 0.04
COC(=O)C1=CC[C@@]23CC[C@@H]([C@@](C)(/C=C/C=C(\C)C(=O)O)OC2=O)[C@@]3(OC(C)=O)CC1 [Pseudolaric Acid B]	0.837 ± 0.014	0.519 ± 0.055
CN1C(=O)/C(=C2/C(=O)Nc3ccccc32)c2ccccc21 [Meisoindigo]	1.23 ± 0.045	1.09 ± 0.11
CN1C(=O)C(C)(C)Oc2c(-c3cn(C)c(=O)c4[nH]ccc34)cc(S(C)(=O)=O)cc21	0.61 ± 0.046	0.409 ± 0.032
CCOC(=O)Nc1cc(-c2ccc(C)c(NS(C)(=O)=O)c2)nn2c(C)nnc12 [Bromosporine]	0.725 ± 0.14	0.715 ± 0.013
CCCCCC1CC1CC1CC1CCCCCCCC(=O)O (configuration not stated)	0.974 ± 0.066	0.804 ± 0.12
C[C@@H]1CCN(C(=O)CC#N)C[C@@H]1N(C)c1ncnc2[nH]ccc12	0.97 ± 0.093	1.17 ± 0.3
C[C@@H]1CCN(C(=O)CC#N)C[C@@H]1N(C)c1ncnc2[nH]ccc12 [Tofacitinib]	1.23 ± 0.2	1.09 ± 0.17
COc1cc(O)c(CC=C(C)C)c(O)c1C(=O)/C=C/c1ccc(O)cc1 [Xanthohumol]	0.778 ± 0.044	0.9365 ± 0.0021
CN(C)CCOc1ccc(/C(=C(/CCCl)c2ccccc2)c2ccccc2)cc1 [Toremifene (citrate)]	1.14 ± 0.21	1.09 ± 0.17
C[C@H]1C[C@H]2[C@@H]3CCC4=CC(=O)C=C[C@]4(C)[C@@]3(F)[C@@H](O)C[C@]2(C)[C@@]1(O)C(=O)CO [Betamethasone]	1.21 ± 0.033	1.01 ± 0.32
Cc1noc(C)c1-c1cc(Cl)c(Nc2ccccc2C(=O)NO)c(Cl)c1	1.17 ± 0.067	1.06 ± 0.082
